Results published in article PMC4956616.

The chains behind the UniProt entries cited, without tags or fusion partners. Where a name states a change or a piece, a line headed by the entry shows the natural chain unless it says otherwise. Residues count along the entry.
UniProt P40616, residues 15-181: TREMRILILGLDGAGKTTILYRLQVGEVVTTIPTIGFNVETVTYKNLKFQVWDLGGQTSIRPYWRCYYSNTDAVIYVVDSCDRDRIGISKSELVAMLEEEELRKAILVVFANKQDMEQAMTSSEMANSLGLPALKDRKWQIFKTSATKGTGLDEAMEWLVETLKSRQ
UniProt Q9Y6D6: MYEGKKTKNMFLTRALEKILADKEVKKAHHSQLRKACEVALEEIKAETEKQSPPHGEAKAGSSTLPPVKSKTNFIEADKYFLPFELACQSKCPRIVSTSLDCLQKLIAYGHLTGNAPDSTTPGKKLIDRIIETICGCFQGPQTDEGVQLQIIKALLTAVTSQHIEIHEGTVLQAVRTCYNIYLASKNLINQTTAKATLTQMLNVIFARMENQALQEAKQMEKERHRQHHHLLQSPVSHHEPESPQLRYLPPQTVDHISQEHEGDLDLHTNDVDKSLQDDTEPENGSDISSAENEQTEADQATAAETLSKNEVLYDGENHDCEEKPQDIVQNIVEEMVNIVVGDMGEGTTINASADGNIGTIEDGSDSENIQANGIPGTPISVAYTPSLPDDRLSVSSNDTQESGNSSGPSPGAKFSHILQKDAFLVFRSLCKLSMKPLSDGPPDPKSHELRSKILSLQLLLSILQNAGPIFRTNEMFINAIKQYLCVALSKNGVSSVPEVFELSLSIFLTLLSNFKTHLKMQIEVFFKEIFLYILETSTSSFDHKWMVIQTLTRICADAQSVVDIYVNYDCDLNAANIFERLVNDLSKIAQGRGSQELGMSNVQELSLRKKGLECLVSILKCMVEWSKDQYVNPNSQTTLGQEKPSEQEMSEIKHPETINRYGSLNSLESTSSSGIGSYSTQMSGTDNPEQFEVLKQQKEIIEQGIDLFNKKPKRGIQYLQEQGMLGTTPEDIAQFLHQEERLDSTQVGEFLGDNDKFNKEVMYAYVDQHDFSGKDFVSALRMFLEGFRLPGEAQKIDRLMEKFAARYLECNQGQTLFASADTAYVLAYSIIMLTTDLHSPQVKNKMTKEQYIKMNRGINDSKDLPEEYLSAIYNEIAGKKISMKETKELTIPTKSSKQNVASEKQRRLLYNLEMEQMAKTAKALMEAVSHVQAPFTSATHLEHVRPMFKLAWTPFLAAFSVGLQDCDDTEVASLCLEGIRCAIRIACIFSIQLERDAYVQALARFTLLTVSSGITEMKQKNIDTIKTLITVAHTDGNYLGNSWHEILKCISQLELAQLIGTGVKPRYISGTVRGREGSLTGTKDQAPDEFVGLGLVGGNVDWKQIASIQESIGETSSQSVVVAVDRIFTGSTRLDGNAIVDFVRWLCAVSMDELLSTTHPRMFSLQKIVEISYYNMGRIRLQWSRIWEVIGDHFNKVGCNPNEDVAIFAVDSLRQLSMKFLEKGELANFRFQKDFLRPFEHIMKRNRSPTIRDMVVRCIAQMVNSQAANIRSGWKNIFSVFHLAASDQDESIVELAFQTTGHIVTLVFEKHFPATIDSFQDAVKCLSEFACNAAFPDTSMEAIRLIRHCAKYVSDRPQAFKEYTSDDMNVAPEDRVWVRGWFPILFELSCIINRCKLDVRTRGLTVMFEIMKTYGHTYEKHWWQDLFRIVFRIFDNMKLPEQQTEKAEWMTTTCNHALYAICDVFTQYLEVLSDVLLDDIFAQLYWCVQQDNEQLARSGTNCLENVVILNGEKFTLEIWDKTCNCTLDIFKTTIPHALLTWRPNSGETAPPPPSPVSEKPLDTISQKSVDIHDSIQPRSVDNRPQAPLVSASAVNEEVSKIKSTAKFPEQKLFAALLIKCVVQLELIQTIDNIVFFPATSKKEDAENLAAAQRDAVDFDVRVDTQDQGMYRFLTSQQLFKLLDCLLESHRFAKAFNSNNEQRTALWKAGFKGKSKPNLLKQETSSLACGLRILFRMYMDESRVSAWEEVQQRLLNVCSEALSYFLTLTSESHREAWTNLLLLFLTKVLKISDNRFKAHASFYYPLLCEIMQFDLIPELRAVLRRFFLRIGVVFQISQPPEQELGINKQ

Target: GST-Arl1^ΔN14 (human Arl1 residues 15–181), loaded with GMP-PNP or GDP (human) (UniProt P40616)
Test: pull-down; 2 nM GST-Arl1 loaded with GMP-PNP or GDP mixed with 2 nM His6-tagged protein in 500 μl buffer C (20 mM Tris-HCl, 110 mM KCl, 1 mM DTT, 0.1% Triton X-100) plus 5 mM MgCl2, 4°C 30 min, captured on glutathione-Sepharose; SDS-PAGE, Coomassie; both purified

| binding | Substance |
| --- | --- |
| no binding | BIG1 DCB domain truncated at the N terminus to residue 61 (from UniProt Q9Y6D6) (domain or fragment) |
| no binding | BIG1 DCB domain truncated at the N terminus to residue 51 (from UniProt Q9Y6D6) (domain or fragment) |
| binds | BIG1 DCB domain truncated at the N terminus to residue 23 (from UniProt Q9Y6D6) (domain or fragment) |

These are yes or no findings as the source states them, for the method shown. Binding calls can cover weak binding; strength is not graded here.
